Data on 7 substances can be found in article PMC7360120.

Numbering of substitutions follows the chain as printed. No constants are given. Whether binding was seen depends on the method and setting. For some of these results: A result given as binding can be weak or reduced; the word gives no strength. Sequences can lack the tags named with a protein. For some of these results: In cells and extracts the contact can be indirect.

One assay has as its target T1, GST-Rab6A Q72L (UniProt P35279).
T1 sequence: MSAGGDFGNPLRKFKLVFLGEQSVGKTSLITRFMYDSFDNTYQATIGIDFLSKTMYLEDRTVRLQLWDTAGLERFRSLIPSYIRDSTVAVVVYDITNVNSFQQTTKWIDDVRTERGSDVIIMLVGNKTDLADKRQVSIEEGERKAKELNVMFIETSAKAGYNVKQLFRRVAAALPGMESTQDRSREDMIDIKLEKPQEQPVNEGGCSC
The experiment in a line: pull-down; GST-Rab proteins (10 μg) on glutathione-Sepharose with 0.5 mL lysate of HEK293T cells transfected with HA-ELKS; 100 mM NaCl, 4 mM EGTA, 25 mM HEPES pH 7.4, 1 mM DTT, 1% Triton X-100, 6 mM Mg2+, 1.5 h at 4°C; HA western blot; only the target purified.

Another assay concerns the target T2, GST-Rab3A T36N (UniProt P63011).
T2 sequence: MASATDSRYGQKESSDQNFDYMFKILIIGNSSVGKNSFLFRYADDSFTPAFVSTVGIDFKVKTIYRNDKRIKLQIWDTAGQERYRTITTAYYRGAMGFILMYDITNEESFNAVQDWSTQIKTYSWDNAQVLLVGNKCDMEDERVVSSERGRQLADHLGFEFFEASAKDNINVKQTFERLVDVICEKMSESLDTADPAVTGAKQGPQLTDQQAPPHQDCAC
The description is as above.

Another assay deals with T3, GST-Rab3A Q81L (UniProt P63011).
T3 sequence: T2 sequence with N36T, Q81L
Described as above.

A further assay addresses T4, GST-ELKS2αB 765-884 (UniProt Q8K3M6).
T4 sequence: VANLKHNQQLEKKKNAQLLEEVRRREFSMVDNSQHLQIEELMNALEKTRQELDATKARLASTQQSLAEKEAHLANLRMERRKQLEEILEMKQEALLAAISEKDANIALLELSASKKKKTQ
Kind of assay: pull-down; GST-ELKS fragments on glutathione-Sepharose with soluble purified His-Rab6 point mutants (1.2 μM); 150 mM NaCl, 20 mM HEPES pH 7.4, 4 mM EGTA, 1 mM DTT, 1% Triton X-100, 0.1 mg/ml BSA, 5 mM Mg2+, 1 h at 4°C; T7 western blot; both purified.

Regarding HA-ELKS1^∆955-971, the binding result in the assay with GST-Rab6A Q72L is “no binding (tested: 10 μg GST-Rab in 0.5 mL lysate)”.

HA-ELKS1αA: the binding entry with GST-Rab3A T36N and in the assay with GST-Rab3A Q81L was “no binding (tested: 10 μg GST-Rab in 0.5 mL lysate)” in each case.

For the substance HA-ELKS1αB, the results for the binding entry in the assay with GST-Rab3A T36N, with GST-Rab6A Q72L and in the assay with GST-Rab3A Q81L were “no binding (tested: 10 μg GST-Rab in 0.5 mL lysate)”, “binds” and “no binding (tested: 10 μg GST-Rab in 0.5 mL lysate)”, respectively.

For HA-ELKS1βB, the binding result with GST-Rab3A T36N and in the assay with GST-Rab3A Q81L was “no binding (tested: 10 μg GST-Rab in 0.5 mL lysate)” each time.

In the case of “HA-ELKS2αA (as printed in the legend of Figure 3)”, the binding result with GST-Rab3A T36N and in the assay with GST-Rab3A Q81L was “no binding (tested: 10 μg GST-Rab in 0.5 mL lysate)” throughout.

With HA-ELKS2βB, the binding result in the assay with GST-Rab3A T36N is on record as “no binding (tested: 10 μg GST-Rab in 0.5 mL lysate)”; with GST-Rab3A Q81L it was “binds weakly”.

For “His-Rab6 (tested with ELKS2, Figures S3D-S3G)”, the binding result with GST-ELKS2αB 765-884 is given as “binds”.
